From the supplement of paper PMC10849652
This is one part of the list.

By UniProt entry, the sequences of proteins in these tests, tags left out. Where a name states a change or a piece, a line headed by the entry shows the natural chain unless it says otherwise.
UniProt Q9BR76, whole entry, looked up: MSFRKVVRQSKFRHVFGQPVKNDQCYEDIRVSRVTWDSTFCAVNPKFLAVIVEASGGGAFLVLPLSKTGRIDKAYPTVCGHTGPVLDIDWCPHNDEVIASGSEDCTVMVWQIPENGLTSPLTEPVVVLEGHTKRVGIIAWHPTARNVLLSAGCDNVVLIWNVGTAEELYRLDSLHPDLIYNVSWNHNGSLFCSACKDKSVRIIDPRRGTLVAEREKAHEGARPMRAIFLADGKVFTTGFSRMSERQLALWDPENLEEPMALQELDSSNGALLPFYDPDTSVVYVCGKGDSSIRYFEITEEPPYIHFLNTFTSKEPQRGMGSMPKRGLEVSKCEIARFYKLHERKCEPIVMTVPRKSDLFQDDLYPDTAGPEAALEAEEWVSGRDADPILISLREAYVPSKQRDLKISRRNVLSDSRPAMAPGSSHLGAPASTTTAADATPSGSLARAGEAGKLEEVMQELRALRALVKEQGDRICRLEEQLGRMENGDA
UniProt P35606: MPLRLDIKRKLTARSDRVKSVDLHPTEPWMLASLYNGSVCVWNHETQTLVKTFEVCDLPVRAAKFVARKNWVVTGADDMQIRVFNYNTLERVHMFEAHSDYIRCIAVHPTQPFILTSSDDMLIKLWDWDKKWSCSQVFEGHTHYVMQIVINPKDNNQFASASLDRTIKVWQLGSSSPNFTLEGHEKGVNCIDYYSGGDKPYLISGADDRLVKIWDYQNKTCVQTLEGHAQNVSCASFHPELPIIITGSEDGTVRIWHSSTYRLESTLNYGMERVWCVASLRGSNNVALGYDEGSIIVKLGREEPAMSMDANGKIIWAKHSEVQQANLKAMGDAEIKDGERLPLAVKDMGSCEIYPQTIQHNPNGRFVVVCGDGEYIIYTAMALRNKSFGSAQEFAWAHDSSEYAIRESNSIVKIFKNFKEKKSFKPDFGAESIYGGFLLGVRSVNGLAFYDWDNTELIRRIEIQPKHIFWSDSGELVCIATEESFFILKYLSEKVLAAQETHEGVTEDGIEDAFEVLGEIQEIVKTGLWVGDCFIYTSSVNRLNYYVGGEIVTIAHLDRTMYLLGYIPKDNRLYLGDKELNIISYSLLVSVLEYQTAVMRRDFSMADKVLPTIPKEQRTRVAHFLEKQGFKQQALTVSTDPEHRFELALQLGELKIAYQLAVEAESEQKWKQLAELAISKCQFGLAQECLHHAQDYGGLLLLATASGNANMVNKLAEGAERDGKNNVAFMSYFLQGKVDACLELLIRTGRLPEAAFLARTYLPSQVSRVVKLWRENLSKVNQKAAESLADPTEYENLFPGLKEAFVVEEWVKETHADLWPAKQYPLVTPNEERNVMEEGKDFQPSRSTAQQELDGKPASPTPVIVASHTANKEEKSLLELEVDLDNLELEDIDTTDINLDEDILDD
UniProt O14579: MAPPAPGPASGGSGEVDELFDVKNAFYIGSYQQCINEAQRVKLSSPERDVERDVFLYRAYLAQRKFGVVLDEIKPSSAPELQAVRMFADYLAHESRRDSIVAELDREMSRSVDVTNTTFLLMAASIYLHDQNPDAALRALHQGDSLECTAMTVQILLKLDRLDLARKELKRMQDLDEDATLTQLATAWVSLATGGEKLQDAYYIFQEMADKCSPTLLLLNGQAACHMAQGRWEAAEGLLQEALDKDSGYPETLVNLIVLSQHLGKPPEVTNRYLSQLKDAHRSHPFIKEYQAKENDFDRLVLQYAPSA
UniProt Q9BSW2: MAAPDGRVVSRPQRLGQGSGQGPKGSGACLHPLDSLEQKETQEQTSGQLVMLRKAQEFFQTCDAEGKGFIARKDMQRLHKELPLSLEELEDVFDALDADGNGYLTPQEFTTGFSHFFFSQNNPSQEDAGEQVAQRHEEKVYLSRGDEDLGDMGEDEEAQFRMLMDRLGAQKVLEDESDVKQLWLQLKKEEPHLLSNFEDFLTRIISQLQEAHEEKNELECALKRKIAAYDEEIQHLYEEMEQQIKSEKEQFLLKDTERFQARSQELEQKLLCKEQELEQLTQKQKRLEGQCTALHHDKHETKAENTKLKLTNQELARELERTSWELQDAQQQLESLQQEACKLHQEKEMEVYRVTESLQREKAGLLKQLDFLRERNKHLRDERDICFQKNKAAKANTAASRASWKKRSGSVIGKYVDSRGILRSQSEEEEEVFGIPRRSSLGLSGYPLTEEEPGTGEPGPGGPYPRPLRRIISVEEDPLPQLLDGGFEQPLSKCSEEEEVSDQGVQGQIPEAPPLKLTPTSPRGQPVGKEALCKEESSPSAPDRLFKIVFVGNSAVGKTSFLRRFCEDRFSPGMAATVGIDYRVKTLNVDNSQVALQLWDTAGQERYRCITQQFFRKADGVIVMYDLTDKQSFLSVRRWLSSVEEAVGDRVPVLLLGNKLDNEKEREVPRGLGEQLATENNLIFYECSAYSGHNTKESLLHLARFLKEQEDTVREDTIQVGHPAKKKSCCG
UniProt Q9P2I0: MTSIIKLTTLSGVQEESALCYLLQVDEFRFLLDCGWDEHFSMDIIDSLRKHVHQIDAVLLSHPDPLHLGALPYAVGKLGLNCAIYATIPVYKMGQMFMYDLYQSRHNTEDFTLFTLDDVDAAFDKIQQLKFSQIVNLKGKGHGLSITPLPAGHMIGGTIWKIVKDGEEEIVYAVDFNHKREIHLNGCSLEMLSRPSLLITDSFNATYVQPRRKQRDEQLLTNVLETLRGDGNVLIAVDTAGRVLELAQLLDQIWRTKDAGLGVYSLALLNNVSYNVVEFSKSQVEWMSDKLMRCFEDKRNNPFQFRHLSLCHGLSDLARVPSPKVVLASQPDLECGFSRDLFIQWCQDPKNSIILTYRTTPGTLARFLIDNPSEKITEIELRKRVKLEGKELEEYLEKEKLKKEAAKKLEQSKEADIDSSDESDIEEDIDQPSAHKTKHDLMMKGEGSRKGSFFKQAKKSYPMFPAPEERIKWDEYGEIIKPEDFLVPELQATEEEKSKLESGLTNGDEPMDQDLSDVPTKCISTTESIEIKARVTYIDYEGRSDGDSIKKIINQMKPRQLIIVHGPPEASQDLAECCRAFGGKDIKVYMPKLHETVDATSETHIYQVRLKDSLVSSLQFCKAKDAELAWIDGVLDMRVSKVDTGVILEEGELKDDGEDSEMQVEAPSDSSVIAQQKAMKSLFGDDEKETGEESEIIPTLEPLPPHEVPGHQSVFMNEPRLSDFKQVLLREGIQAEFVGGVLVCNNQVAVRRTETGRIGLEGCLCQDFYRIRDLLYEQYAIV
UniProt A4D0V7: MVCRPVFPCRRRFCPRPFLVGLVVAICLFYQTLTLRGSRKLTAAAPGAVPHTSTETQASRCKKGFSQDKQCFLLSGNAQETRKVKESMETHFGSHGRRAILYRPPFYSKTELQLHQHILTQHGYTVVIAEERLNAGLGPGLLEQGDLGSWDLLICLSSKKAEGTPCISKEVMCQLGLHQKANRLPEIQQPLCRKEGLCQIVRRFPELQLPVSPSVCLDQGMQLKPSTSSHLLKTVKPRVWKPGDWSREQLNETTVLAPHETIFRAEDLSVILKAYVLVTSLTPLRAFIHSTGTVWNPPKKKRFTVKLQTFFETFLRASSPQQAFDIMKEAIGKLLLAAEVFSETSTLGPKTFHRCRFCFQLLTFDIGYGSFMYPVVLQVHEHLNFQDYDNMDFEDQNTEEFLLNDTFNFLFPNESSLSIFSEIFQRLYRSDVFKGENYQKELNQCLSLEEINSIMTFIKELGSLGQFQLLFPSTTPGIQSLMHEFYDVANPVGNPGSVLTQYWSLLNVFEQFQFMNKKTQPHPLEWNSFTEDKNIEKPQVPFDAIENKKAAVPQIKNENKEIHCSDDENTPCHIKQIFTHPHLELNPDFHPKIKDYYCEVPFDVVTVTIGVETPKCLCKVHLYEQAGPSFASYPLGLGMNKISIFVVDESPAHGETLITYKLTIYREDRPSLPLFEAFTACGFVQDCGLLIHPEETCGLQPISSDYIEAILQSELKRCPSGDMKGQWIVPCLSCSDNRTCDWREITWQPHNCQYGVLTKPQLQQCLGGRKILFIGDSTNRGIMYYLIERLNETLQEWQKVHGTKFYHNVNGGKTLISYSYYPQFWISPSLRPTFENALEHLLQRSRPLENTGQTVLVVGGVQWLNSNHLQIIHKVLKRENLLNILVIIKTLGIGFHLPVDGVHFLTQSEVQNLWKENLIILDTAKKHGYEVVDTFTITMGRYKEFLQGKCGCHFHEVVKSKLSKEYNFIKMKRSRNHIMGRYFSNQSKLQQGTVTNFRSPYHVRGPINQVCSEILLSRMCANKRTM
UniProt A4D126: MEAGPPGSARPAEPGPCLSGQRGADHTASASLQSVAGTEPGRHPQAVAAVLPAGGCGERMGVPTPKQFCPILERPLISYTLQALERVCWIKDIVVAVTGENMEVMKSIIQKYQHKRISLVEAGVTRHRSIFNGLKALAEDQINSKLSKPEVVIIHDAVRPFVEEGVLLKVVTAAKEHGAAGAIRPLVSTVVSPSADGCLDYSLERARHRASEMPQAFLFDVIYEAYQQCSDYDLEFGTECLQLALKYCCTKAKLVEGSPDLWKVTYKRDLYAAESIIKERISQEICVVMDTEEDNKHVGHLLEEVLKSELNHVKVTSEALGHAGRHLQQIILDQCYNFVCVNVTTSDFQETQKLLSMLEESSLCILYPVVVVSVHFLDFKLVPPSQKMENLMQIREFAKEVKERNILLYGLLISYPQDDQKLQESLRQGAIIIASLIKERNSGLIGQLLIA
UniProt Q5RI15: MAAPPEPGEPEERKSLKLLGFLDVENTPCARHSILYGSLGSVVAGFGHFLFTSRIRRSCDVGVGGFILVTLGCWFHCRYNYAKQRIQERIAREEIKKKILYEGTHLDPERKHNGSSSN
UniProt P48729: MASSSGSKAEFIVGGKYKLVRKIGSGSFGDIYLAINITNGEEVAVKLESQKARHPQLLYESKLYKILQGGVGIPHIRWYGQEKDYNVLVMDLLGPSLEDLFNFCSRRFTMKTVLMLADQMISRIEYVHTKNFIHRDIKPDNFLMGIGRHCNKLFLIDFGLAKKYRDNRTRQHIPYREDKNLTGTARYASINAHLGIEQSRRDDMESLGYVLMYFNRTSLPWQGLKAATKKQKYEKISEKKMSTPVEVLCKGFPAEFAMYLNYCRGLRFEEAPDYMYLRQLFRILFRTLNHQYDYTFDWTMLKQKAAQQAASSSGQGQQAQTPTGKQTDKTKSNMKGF
UniProt P21964: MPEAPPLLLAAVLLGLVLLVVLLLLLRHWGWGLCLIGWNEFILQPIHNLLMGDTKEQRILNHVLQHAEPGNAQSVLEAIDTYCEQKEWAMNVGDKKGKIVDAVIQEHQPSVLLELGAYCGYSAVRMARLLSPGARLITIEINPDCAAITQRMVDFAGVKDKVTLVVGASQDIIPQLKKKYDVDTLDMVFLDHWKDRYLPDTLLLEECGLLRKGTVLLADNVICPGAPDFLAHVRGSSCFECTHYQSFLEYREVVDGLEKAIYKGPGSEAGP
UniProt Q9ULV4, whole entry, looked up: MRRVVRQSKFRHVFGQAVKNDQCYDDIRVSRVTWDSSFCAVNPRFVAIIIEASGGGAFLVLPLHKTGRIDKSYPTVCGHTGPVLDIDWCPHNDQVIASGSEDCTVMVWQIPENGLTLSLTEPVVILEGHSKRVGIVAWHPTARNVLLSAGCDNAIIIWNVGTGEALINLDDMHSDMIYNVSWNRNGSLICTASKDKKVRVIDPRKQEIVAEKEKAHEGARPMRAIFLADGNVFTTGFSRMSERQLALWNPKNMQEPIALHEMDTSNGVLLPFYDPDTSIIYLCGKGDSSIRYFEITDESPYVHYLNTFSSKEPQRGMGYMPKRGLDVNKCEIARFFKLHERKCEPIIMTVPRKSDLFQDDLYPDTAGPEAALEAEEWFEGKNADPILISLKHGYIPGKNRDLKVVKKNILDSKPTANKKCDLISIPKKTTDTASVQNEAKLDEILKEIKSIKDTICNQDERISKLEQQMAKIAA
UniProt P20674, whole entry, looked up: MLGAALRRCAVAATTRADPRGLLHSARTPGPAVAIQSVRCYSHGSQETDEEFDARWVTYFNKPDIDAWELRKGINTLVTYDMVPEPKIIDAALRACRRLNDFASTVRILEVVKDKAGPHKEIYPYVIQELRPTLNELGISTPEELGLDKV
UniProt Q86VX2, whole entry, looked up: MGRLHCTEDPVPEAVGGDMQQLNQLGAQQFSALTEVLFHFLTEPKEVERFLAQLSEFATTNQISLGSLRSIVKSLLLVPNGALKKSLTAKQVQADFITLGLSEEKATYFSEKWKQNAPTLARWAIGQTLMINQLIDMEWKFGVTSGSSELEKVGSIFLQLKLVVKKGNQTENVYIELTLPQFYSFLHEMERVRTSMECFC
UniProt Q9Y6G5, whole entry, looked up: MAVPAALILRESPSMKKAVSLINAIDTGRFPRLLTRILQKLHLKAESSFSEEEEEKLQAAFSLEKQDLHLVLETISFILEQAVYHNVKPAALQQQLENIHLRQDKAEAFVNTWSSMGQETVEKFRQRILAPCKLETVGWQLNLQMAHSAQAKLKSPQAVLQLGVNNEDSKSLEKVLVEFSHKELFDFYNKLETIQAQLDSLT

Experiments:
Experiment in all cases: log2 fold change, soluble protein after heating vs DMSO (PISA); higher = thermal stabilisation; K562 cells, 10 uM, 30 min; active = over 0.2 and 3.5 SD of the protein, either way, in both replicates (recomputed)
[1] = compound: CC1=C(C=C(C=C1)NC(=O)C2=CC(=CC=C2)C(C)(C)C#N)NC3=CC4=C(C=C3)N=CN(C4=O)C
Method in brief: (§1)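 For each measurement, 10 μM compound was applied for 30 min to K562 cells at 2×10^6 cells/mL. Aliquots were heated for 3 min across 48°C-58°C, pooled, and extracted in PBS with 0.5% NP-40 at 4°C; the supernatant after 21,000xg for 90 min was soluble protein. This was quantified by TMTpro 16plex LC-MS/MS with channel sums equalised, and thermal stability was reported relative to control samples from duplicates, on a log2 fold-change scale.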

[2] = compound: CC1=C(C=C(C=C1)NC(=O)C2=CC(=CC=C2)N(C)C)NC(=O)C3=CC=C(C=C3)O
Method in brief: as §1

[3] = compound: CC1=CC=C(C=C1)SC2=C3C=C(SC3=CN=C2)C(=O)N
Method in brief: as §1

[4] = compound: CC1=NC(=CC=C1)C2=C(N=C(N2)C(C)(C)C)C3=CC4=NC=CN=C4C=C3
Method in brief: as §1

[5] = compound: CCCCN(Cc1ccc(C(=O)NO)cc1)C(=O)Nc1ccccc1 [Nexturastat A]
Method in brief: as §1

[6] = compound: CCCS(=O)(=O)Nc1ccc(F)c(C(=O)c2c[nH]c3ncc(-c4ccc(Cl)cc4)cc23)c1F [vemurafenib]
Method in brief: as §1

[7] = compound: CCCS(=O)(=O)Nc1ccc(F)c(C(=O)c2c[nH]c3ncc(Cl)cc23)c1F
Method in brief: as §1

[8] = compound: CCCc1cc(C)[nH]c(=O)c1CNC(=O)c1cc(-c2ccnc(N3CCN(C)CC3)c2)cc2c1cnn2C(C)C
Method in brief: as §1

[9] = compound: CCN(CC)Cc1ccc2cc(COC(=O)Nc3ccc(C(=O)NO)cc3)ccc2c1 [givinostat]
Method in brief: as §1

[10] = compound: CCN(CCCOc1ccc2c(Nc3cc(CC(=O)Nc4cccc(F)c4)[nH]n3)ncnc2c1)CCOP(=O)(O)O [barasertib]
Method in brief: as §1

[11] = compound: CC[C@@H]1C(=O)N(C)c2cnc(Nc3ccc(C(=O)NC4CCN(C)CC4)cc3OC)nc2N1C1CCCC1
Method in brief: as §1

[12] = compound: CC[C@@H]1C(=O)N(C)c2cnc(Nc3ccc(C(=O)N[C@H]4CC[C@H](N5CCN(CC6CC6)CC5)CC4)cc3OC)nc2N1C(C)C [volasertib]
Method in brief: as §1

[13] = compound: CC[C@H](C)N1C=C(C2=C(C=C(C=C21)C3=CN=C(C=C3)N4CCNCC4)C(=O)NCC5=C(C=C(NC5=O)C)C)C
Method in brief: as §1

[14] = compound: CC[C@H](C)[C@@H](C(=O)N[C@@H]([C@@H](C)O)C(=O)N[C@@H](CC(C)C)C(=O)[C@]1(CO1)C)NC(=O)[C@H]([C@@H](C)CC)N(C)C(=O)C [epoxomicin]
Method in brief: as §1

[15] = compound: CCn1c(C(=O)N(C2CC2)C2CC2)cc2c3c(ncn3C)c(Nc3cc(C)n(C)n3)nc21
Method in brief: as §1

[16] = compound: CCn1cc(-c2ccnc3[nH]c(-c4cccc(CN(C)C)c4)cc23)c(-c2ccc(NC(=O)N(C)C)cc2)n1
Method in brief: as §1

[17] = compound: CN(C)CC(=O)Nc1ccc2[nH]c(=O)c3ccccc3c2c1
Method in brief: as §1

[18] = compound: CN(CCOC1=CC=C(C=C1)C[C@H]2C(=O)NC(=O)S2)C3=CC=CC=N3 (racemic) [rosiglitazone]
Method in brief: as §1

[19] = compound: CN1C2=C(C3=C1C(=O)N(N=C3)CC4=CC(=CC=C4)N)SC(=C2)S(=O)C
Method in brief: as §1

[20] = compound: CN1CCC(CNc2ccc3ncc(-c4cccc(OC(F)(F)F)c4)n3n2)CC1
Method in brief: as §1

Measured: log2 fold change

CREG1 (UniProt O75629)
inactive: [1] -0.182 | [2] 0.049 | [3] 0.056 | [4] 0.008 | [5] 0.097 | [6] -0.011 | [7] 0.063 | [8] -0.013 | [9] 0 | [10] -0.079 | [11] 0.014 | [12] -0.043 | [13] -0.043 | [14] -0.106 | [15] 0.005 | [16] 0.093 | [17] 0.039 | [18] 0.002 | [19] -0.027 | [20] -0.029

CORO1B (UniProt Q9BR76)
inactive: [1] 0.016 | [2] -0.027 | [3] 0.031 | [4] 0.074 | [5] -0.066 | [6] 0.062 | [7] 0 | [8] 0.048 | [9] -0.019 | [10] 0.011 | [11] -0.046 | [12] -0.063 | [13] 0.033 | [14] 0.019 | [15] -0.033 | [16] -0.052 | [17] 0.01 | [18] 0.023 | [19] -0.046 | [20] 0.005

COPB2 (UniProt P35606)
inactive: [1] -0.007 | [2] -0.013 | [3] -0.009 | [4] 0.014 | [5] -0.012 | [6] 0.004 | [7] 0.04 | [8] -0.001 | [9] -0.016 | [10] 0.022 | [11] -0.019 | [12] -0.131 | [13] 0.014 | [14] 0.051 | [15] -0.04 | [16] -0.01 | [17] 0.005 | [18] 0.019 | [19] -0.028 | [20] 0.008

COPE (UniProt O14579)
inactive: [1] 0.016 | [2] 0.013 | [3] 0.027 | [4] 0.023 | [5] 0.044 | [6] 0.052 | [7] 0.061 | [8] -0.045 | [9] 0.012 | [10] 0.034 | [11] 0.008 | [12] -0.013 | [13] 0.017 | [14] -0.023 | [15] -0.028 | [16] 0.018 | [17] 0.008 | [18] 0.033 | [19] -0.013 | [20] 0.002

CRACR2A isoform 2 (UniProt Q9BSW2)
inactive: [1] -0.004 | [2] -0.024 | [3] 0.024 | [4] 0.023 | [5] -0.059 | [6] -0.011 | [7] -0.029 | [8] 0.067 | [9] 0.078 | [10] 0.004 | [11] -0.049 | [12] -0.057 | [13] 0.058 | [14] 0.137 | [15] -0.013 | [16] 0.014 | [17] -0.011 | [18] 0.042 | [19] -0.016 | [20] 0.025

CPSF2 (UniProt Q9P2I0)
inactive: [1] 0.001 | [2] -0.066 | [3] -0.001 | [4] 0.029 | [5] 0.163 | [6] -0.019 | [7] -0.021 | [8] -0.261 | [9] -0.02 | [10] -0.022 | [11] -0.001 | [12] -0.025 | [13] -0.021 | [14] -0.009 | [15] -0.064 | [16] -0.023 | [17] 0.041 | [18] 0.23 | [19] -0.014 | [20] -0.071

CPED1 (UniProt A4D0V7)
inactive: [1] 0.012 | [2] 0.034 | [3] -0.062 | [4] -0.025 | [5] 0.164 | [6] -0.044 | [7] -0.071 | [8] -0.15 | [9] 0.051 | [10] -0.08 | [11] 0.131 | [12] 0.022 | [13] -0.027 | [14] 0.145 | [15] -0.063 | [16] 0.089 | [17] -0.017 | [18] 0.062 | [19] 0.21 | [20] 0.088

CRPPA (UniProt A4D126)
inactive: [1] -0.021 | [2] -0.038 | [3] 0.103 | [4] -0.044 | [5] -0.07 | [6] -0.034 | [7] -0.012 | [8] -0.024 | [9] 0.012 | [10] -0.009 | [11] 0.047 | [12] 0.029 | [13] -0.019 | [14] 0.001 | [15] -0.018 | [16] 0.012 | [17] 0.016 | [18] 0.029 | [19] -0.089 | [20] -0.066

COX20 isoform 2 (UniProt Q5RI15)
inactive: [1] 0.035 | [2] -0.041 | [3] 0.102 | [4] 0.036 | [5] -0.038 | [6] -0.036 | [7] -0.041 | [8] 0.069 | [9] -0.04 | [10] -0.03 | [11] -0.019 | [12] 0.077 | [13] -0.01 | [14] 0 | [17] -0.038 | [19] 0.002 | [20] 0.081
active: [16] 0.294

CSNK1A1 (UniProt P48729)
inactive: [1] -0.021 | [2] 0.03 | [3] -0.006 | [4] -0.12 | [5] 0.028 | [6] -0.006 | [7] 0 | [8] 0.031 | [9] 0.037 | [10] 0 | [11] -0.011 | [12] -0.117 | [13] 0.057 | [14] 0.046 | [16] 0.008 | [17] -0.179 | [19] 0.072 | [20] -0.067

COMT (UniProt P21964)
inactive: [1] 0.14 | [2] 0.009 | [3] -0.012 | [4] 0.019 | [5] 0.036 | [6] 0.011 | [7] 0.002 | [8] 0.005 | [9] 0.144 | [10] -0.006 | [11] 0.013 | [12] 0.073 | [13] 0.01 | [14] -0.023 | [16] -0.01 | [17] 0.005 | [19] -0.11 | [20] 0.142

CORO1C isoform 3 (UniProt Q9ULV4)
inactive: [1] 0.004 | [2] 0 | [3] -0.016 | [4] 0.064 | [5] -0.044 | [6] 0.069 | [7] 0.038 | [8] 0 | [9] -0.112 | [10] -0.007 | [11] -0.036 | [12] -0.213 | [13] 0.019 | [14] 0.043 | [15] -0.043 | [16] -0.051 | [17] -0.026 | [18] -0.012 | [19] -0.035 | [20] 0.132

COX5A (UniProt P20674)
inactive: [1] -0.005 | [2] -0.074 | [3] 0 | [4] -0.016 | [5] 0.072 | [6] 0.165 | [7] -0.114 | [8] -0.093 | [9] -0.092 | [10] 0.085 | [11] 0.048 | [12] -0.08 | [13] -0.081 | [14] 0.234 | [16] 0.072 | [17] -0.001 | [19] -0.063 | [20] 0.269

COMMD7 (UniProt Q86VX2)
inactive: [1] -0.045 | [2] 0.009 | [3] -0.04 | [4] -0.043 | [5] -0.008 | [6] 0.035 | [7] 0.029 | [8] -0.031 | [9] 0.006 | [10] -0.021 | [11] 0.003 | [12] -0.169 | [13] -0.049 | [14] -0.005 | [15] -0.01 | [16] -0.036 | [17] 0.051 | [18] 0.055 | [19] -0.018 | [20] -0.099

COMMD10 (UniProt Q9Y6G5)
inactive: [1] 0.029 | [2] 0 | [3] -0.01 | [4] -0.01 | [5] -0.037 | [6] 0.117 | [7] 0.118 | [8] 0.015 | [9] -0.014 | [10] -0.005 | [11] 0.022 | [12] -0.008 | [13] 0.034 | [14] 0.004 | [15] -0.03 | [16] -0.06 | [17] 0.065 | [18] -0.014 | [19] -0.075 | [20] 0.065
